Experimental data reported in PubChem BioAssay AID488837 (National Center for Advancing Translational Sciences (NCATS), 2010).
In all, about 330,000 compounds went through this assay and about 20 (0.006%) were called active. Inconclusive results, whose numbers are uncertain, are shown with a selection of clear calls. The call rests on the fitted dose curve; in most records, active means well fitted inhibition curve with a large enough effect; inconclusive means small, poorly fitted or top-dose-only effect, or effect the other way; inactive means flat fitted curve, though single readings scatter. Potencies beside an inconclusive call are fits to weak or partial responses and may not hold up.
On the % scale 0 is the no-effect control and ±100 the full control effect; potency means the concentration at half of the fitted maximal effect.

By UniProt entry, the sequences of proteins in these tests, tags left out. Where a name states a change or a piece, a line headed by the entry shows the natural chain unless it says otherwise.
UniProt O00167: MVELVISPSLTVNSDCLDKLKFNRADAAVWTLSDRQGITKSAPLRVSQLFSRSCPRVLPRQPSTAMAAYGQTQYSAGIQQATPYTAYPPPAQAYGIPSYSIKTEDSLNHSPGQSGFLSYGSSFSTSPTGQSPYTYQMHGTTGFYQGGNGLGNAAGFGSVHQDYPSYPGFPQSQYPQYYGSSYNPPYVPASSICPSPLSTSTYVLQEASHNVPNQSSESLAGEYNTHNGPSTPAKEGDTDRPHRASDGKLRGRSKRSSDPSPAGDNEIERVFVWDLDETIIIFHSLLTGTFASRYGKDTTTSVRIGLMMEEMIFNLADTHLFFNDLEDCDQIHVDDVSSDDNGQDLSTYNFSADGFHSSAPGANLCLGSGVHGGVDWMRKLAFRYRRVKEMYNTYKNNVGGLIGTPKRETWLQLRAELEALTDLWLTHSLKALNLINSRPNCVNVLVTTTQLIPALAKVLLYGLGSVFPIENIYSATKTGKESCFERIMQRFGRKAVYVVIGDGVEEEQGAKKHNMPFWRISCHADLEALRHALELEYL

These compounds were tested against Protein phosphatase EYA2 (Homo sapiens) (UniProt O00167) (assay: qHTS Assay for Inhibitors of the Phosphatase Activity of Eya2). Conditions: recombinant Eya2, OMFP fluorescence dephosphorylation (OMFP is methylfluorescein phosphate); activity, negative = inhibition: at 76.9 µM (top of the series) unless noted.
In short: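 Eya2 (0.2 uM) preincubated 10 min at ambient with compound, then OMFP substrate added at 50 uM; 10 min reaction in 50 mM HEPES pH 7.5, 50 mM NaCl, 5 uM MgCl2, 0.05% BSA, 1 mM DTT. Fluorescence read at Ex 485/Em 525 nm.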
With `CCOC(=O)COn1c(=O)c(-c2cc3ccccc3o2)[n+]([O-])c2ccccc21` the Potency was “inactive”.
`CC(Sc1nnc(CNc2cccc3ccccc23)n1-c1ccccc1)C(=O)N/N=C/c1ccco1` (centres undefined) was tested, and the Potency was inconclusive: 56.2 µM [inhibitor, partial curve, poor fit].
For `O=C(CN(c1ccccn1)S(=O)(=O)c1ccccc1)Nc1ccccc1`, the Potency was inconclusive: 22.4 µM [inhibitor, single point].
For `CN(C)C(CNC(=O)/C=C/c1cccc(Cl)c1)c1ccccc1` (centres undefined), the Potency was “inactive”.
With `Cc1[nH]c2ccccc2c1C(=O)C(=O)NCC1CCCO1` (centres undefined) the Potency was inconclusive: 178 µM [inhibitor, partial curve, poor fit].
With `CC(=O)NN1C(=O)c2ccccc2NC1c1ccccc1` (centres undefined) the Potency was inconclusive: 89.1 µM [inhibitor, single point].
`COc1ccc(Br)cc1C(=O)N/N=C/c1ccc([N+](=O)[O-])cc1` was tested, and the Potency was inconclusive: 112 µM [inhibitor, single point].
In the case of `COC(=O)c1ccc(Cn2cc([N+](=O)[O-])cn2)cc1`, the Potency is reported as inconclusive: 17.8 µM [inhibitor, partial curve, poor fit].
In the case of `Cn1c(=O)c2c(nc(NCc3ccc4c(c3)OCO4)n2Cc2ccccc2Cl)n(C)c1=O`, the Potency is reported as “inactive”.
In the case of `O=C(CCc1nnc2n(Cc3ccccc3)c(=O)c3ccccc3n12)NCCCN1CCCCC1`, the Potency is reported as inconclusive: 89.1 µM [inhibitor, single point].
In the case of `C=CCOc1ccc(/C=C2\SC(N3CCCCC3)=NC2=O)cc1`, the Potency is reported as inconclusive: 20 µM [inhibitor, single point].
For `Cc1cc(C)c(C(=O)Nc2ccc(S(=O)(=O)Nc3ccccn3)cc2)c(C)c1`, the Potency was inconclusive: 56.2 µM [inhibitor, partial curve].
With `O=[N+]([O-])c1ccc(Nc2ccc(Cl)cc2)nc1` the Potency was “inactive”.
`O=C1CC(Nc2ccc(N3CCOCC3)cc2)C(=O)N1c1ccccc1F` (centres undefined) was tested, and the Potency was “inactive”.
In the case of `C=CCn1c(SCc2ccc(C#N)cc2)nnc1-c1cccc(Cl)c1`, the Potency is reported as “inactive”.
For `CC(C)C(=O)Nc1cccc(NC(=S)NC(=O)c2cccs2)c1`, the Potency was “inactive”.
`COc1cccc(-c2nc(-c3ccccc3)c(-c3ccccc3)[nH]2)c1OCC(=O)O` was tested, and the Potency was inconclusive: 25.1 µM [inhibitor, single point].
In the case of `COc1nn(-c2ccccc2)c(=O)c(Cl)c1Cl`, the Potency is reported as inconclusive: 25.1 µM [inhibitor, partial curve, poor fit].
For `Cc1cccc(-n2cc[nH]c2=S)c1C`, the Potency was “inactive”.
For `CCOC(=O)c1cccc(NC(=O)COc2ccc([N+](=O)[O-])cc2)c1`, the Potency was inconclusive: 112 µM [inhibitor, single point].
For `COc1ccccc1C1CCN(C(=O)c2cnn(-c3ccccc3)c2C)CC1`, the Potency was inconclusive: 70.8 µM [inhibitor, partial curve, poor fit].
For `CS(=O)(=O)N1CCC(C(=O)Nc2ccc(C(N)=O)cc2)CC1`, the Potency was inconclusive: 22.4 µM [inhibitor, single point].
`Cc1c(NC(=O)C(C)OC(=O)CCC2CCCC2)c(=O)n(-c2ccccc2)n1C` (centres undefined) was tested, and the Potency was inconclusive: 11.2 µM [inhibitor, partial curve, poor fit].
In the case of `Cc1ccc(C(=O)NC(=S)Nc2ccc(Oc3ccc(Cl)cc3)cc2)cc1`, the Potency is reported as “inactive”.
`CC(C)c1ccccc1NC(=O)COC(=O)COc1ccccc1[N+](=O)[O-]` was tested, and the Potency was inconclusive: 89.1 µM [inhibitor, single point].
For `COC(=O)c1ccc(C2NC(=O)c3c(sc(C)c3C)N2)cc1` (centres undefined), the Potency was inconclusive: 89.1 µM [inhibitor, single point].
For `Cc1cc(C(=O)Nc2ccc(Cl)cc2)n(-c2ccccc2)n1`, the Potency was inconclusive: 100 µM [inhibitor, single point].
`CC(=O)NN1C(=O)c2ccccc2NC1c1ccccc1O` (centres undefined) was tested, and the Potency was inconclusive: 100 µM [inhibitor, single point].
`CCCOc1ccc(CNC(=O)c2ccc3c(c2)N(CC)CCS3)cc1` was tested, and the Potency was inconclusive: 398 µM [inhibitor, single point].
`O=C(/C=C/c1ccccc1)Oc1ccccc1C(=S)N1CCOCC1` was tested, and the Potency was “inactive”.
For `CCn1c(-c2ccoc2C)n[nH]c1=S`, the Potency was inconclusive: 100 µM [inhibitor, partial curve].
In the case of `Cc1ccc(S(=O)(=O)NCCNC(=O)c2ccc(C)nc2)cc1`, the Potency is reported as inconclusive: 28.2 µM [inhibitor, single point].
For `C/C(=N\Nc1nnc(C)c(=O)[nH]1)C(=O)O`, the Potency was “inactive”.
`CC(C)(C)C(=O)N1CCN(c2ccc(Cl)cc2[N+](=O)[O-])CC1` was tested, and the Potency was “inactive”.
`O=C(Cn1cncn1)c1ccccc1` was tested, and the Potency was inconclusive: 20 µM [inhibitor, single point].
With `Cc1ccc(Nc2nc(N)nc(CSc3nnc(C)s3)n2)cc1` the activity, negative = inhibition was inconclusive: -37.6% [inhibitor].
In the case of `O=C(O)C(Cc1ccc(O)cc1)N1C(=O)c2ccccc2C1=O` (centres undefined), the Potency is reported as inconclusive: 63.1 µM [inhibitor, partial curve, poor fit].
With `Nc1nonc1C(=O)NCCNc1ccc([N+](=O)[O-])cc1` the activity, negative = inhibition was inconclusive: -31.3% [inhibitor].
With `CCCc1nc2c(C)cc(-c3nc4ccccc4n3C)cc2n1Cc1ccc(-c2ccccc2C(=O)O)cc1` the Potency was inconclusive: 28.2 µM [inhibitor, single point].
With `COc1ccc(N2CCN(CC(=O)Nc3cc(C)cc(C)c3)CC2)cc1` the Potency was inconclusive: 100 µM [inhibitor, single point].
`COc1cccc2[nH]c3c(=O)[nH]cnc3c12` was tested, and the Potency was inconclusive: 14.1 µM [inhibitor, partial curve, poor fit].
For `N#C/C(=N/Nc1ccc([N+](=O)[O-])cc1)C(=N)N1CCCCC1`, the Potency was inconclusive: 447 µM [inhibitor, partial curve, poor fit].
With `Cc1ccc(-c2cnc(NC(=O)CCC(=O)N(C)Cc3ccccc3)n2C)cc1` the Potency was inconclusive: 100 µM [inhibitor, single point].
In the case of `Cc1ccccc1NC(=O)CN(C)S(=O)(=O)c1cccs1`, the Potency is reported as inconclusive: 200 µM [inhibitor, partial curve].
